Our source for the binding values is article doi:10.1101/2021.02.17.431740.

Protein sequences, listed by entry. Tags and fused reporters are not part of them. Lines headed by an entry give the natural chain unless they say otherwise; changes in a name come on top.
UniProt Q14289, whole entry: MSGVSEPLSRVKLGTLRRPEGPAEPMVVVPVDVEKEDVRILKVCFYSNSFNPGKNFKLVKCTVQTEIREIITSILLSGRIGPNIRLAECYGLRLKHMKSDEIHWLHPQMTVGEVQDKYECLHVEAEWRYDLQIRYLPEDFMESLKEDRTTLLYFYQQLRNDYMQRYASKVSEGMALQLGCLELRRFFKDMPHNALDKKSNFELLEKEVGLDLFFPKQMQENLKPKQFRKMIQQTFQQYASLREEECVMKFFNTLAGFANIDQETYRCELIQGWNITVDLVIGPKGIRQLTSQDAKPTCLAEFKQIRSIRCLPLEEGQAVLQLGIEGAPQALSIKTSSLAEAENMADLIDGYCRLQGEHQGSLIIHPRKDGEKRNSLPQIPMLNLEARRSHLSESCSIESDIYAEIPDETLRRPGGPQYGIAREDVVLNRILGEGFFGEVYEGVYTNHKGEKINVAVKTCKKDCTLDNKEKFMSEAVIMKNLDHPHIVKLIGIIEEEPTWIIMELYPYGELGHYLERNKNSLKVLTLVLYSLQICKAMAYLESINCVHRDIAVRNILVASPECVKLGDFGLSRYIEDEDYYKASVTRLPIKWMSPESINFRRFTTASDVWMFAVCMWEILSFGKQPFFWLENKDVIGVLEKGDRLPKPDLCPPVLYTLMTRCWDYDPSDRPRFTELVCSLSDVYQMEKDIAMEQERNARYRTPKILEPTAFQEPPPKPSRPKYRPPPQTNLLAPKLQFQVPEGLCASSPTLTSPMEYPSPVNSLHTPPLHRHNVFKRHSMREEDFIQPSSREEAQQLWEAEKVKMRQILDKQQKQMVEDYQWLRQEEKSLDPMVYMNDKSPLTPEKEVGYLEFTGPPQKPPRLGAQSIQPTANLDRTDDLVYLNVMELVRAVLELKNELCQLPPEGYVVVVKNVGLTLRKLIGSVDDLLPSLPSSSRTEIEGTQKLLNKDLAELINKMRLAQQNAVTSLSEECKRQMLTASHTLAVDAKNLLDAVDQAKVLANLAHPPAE

The target in experiment [1] is HA-tagged PEAK3 SH3(2) mutant (DKO MCF-10A cells) (UniProt Q6ZS72). The experiment can be described thus: co-IP.
Experiment [2] deals with T1, HA-tagged WT PEAK3 (HEK293 cells) (UniProt Q6ZS72).
T1 sequence: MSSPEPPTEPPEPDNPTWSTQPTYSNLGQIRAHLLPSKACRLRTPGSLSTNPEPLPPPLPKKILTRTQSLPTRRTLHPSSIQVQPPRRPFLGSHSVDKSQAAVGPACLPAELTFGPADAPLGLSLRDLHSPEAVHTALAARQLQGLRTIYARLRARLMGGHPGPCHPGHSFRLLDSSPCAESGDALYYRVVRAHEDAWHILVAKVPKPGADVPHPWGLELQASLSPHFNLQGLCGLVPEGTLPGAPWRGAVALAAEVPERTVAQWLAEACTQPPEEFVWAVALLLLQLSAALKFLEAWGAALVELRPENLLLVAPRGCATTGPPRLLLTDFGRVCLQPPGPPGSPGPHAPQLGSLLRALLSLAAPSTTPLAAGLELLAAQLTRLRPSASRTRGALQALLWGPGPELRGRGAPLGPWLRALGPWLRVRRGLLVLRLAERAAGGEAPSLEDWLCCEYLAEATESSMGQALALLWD
The experiment in a line: co-IP.

Results are given in words; binding and its absence hold for the method and conditions named. In cells and extracts the contact can be indirect. Some results given as binding are weak or reduced against the parent protein; the word gives no strength. For part of these data: Where a sequence is shown, tags or fusion partners need not be part of it.

As to “EGFR (MCF-10A cells) (from UniProt P00533 25-1210) (receptor)”, the binding result in experiment [1] was “binds”. Turning to “PYK2 (HEK293 cells) (from UniProt Q14289 1-1009)”, the binding result in experiment [2] is given as “binds”. As for “EGFR (HEK293 cells) (from UniProt P00533 25-1210) (receptor)”, the binding result in experiment [2] was “binds”.
